Source: PubChem BioAssay AID1671190 (National Center for Advancing Translational Sciences (NCATS), 2021)
Screen size: about 580,000 compounds; about 6,100 (1.1%) were called active. The shares of active, inactive and inconclusive entries below differ from those in the screen. Calls follow the shape of the dose curve; as a rule, active = well fitted inhibition curve with a large enough effect; inconclusive = small, poorly fitted or top-dose-only effect, or another doubt; inactive = no such curve, though single readings can be large or run the other way. Where the call is inconclusive, the potency comes from a doubtful curve fit.

Amino acid sequences for entries named in this document (tags omitted).
UniProt P18054, whole entry, looked up: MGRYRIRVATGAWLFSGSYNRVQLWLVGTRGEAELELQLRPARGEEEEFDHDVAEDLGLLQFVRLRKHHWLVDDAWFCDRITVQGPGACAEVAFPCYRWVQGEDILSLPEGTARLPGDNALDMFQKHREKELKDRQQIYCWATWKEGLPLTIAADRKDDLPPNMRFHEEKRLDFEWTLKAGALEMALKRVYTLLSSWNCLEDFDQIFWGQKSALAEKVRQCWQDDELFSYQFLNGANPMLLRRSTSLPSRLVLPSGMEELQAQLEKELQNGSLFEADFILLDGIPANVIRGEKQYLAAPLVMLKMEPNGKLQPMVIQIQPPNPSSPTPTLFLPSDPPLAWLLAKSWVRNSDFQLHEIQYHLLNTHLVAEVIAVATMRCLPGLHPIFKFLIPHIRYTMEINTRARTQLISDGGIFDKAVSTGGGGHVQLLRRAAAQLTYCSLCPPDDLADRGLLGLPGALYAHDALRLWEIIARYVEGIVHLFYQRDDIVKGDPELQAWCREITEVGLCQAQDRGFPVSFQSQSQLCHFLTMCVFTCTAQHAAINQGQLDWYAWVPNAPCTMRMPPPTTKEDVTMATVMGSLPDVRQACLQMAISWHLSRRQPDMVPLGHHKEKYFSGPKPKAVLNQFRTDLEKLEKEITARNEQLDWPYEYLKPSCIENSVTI

Biological target: Polyunsaturated fatty acid lipoxygenase ALOX12 (Homo sapiens) (UniProt P18054)
Test: Primary qHTS assay for inhibitors of human arachidonate 12S-lipoxygenase (ALOX12): Round 2
Settings: purified 12hLO, xylenol orange hydroperoxide absorbance; series mostly up to 108 µM
Summary of the method: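 Hydroperoxide product was detected by ferrous iron/xylenol orange as the 573 to 405 nm absorbance ratio. Arachidonic acid at 40 uM (final) was turned over for 30 min at room temperature by 150 nM human 12hLO, pH 7.0 Hepes buffer, after 15 min compound preincubation.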
Potency is read from the fitted curve at half-maximal effect.

| SMILES | Potency |
| --- | --- |
| O=C(CCCN1CCC2(CC1)C(=O)NCN2c1ccccc1)c1ccc(F)cc1 | inconclusive: 35.5 µM [inhibitor, partial curve] |
| O=C(CN1CCN(Cc2ccccc2)CC1)Nc1ccc(Cl)cc1C(=O)c1ccccc1 | inconclusive: 31.6 µM [inhibitor, full curve, poor fit] |
| Cc1cc(N2C(=O)C3CCCN3C2c2ccc(Cl)c(Cl)c2)no1 (configuration not stated) | inconclusive: 31.6 µM [inhibitor, partial curve, poor fit] |
| O=C(CN1CC=C(c2ccccc2)CC1)N(C1CCCCC1)C1CCS(=O)(=O)C1 (configuration not stated) | inconclusive: 7.94 µM [inhibitor, partial curve, poor fit] |
| COc1cccc(OC)c1CN1CCCC(C(=O)c2cccc(Cl)c2)C1 (configuration not stated) | inconclusive: 100 µM [inhibitor, single point] |
| Cc1ccc(-n2c(O)c(C=NCCN3CCOCC3)c(=O)[nH]c2=O)cc1 | inactive |
| COc1ccccc1NC(=O)Nc1ccc2n(c1=O)C[C@H]1C[C@@H]2CN(C2CCOCC2)C1 | active: 12.6 µM |
| CCC(c1nnnn1C1CCCCC1)N1CCC2(CC1)C(=O)NCN2c1ccccc1 (configuration not stated) | inactive |
| COc1ccccc1/C=C1\C(=O)NC(=S)N(c2ccccc2)C1=O | inconclusive: 50.1 µM [inhibitor, partial curve, poor fit] |
| COCC(=O)NC[C@H]1C[C@@H]2CCN1C[C@@H]2CN1CCc2ccccc2C1 | inactive |
| CSc1ncc(Cl)c(C(=O)O)n1 | inconclusive: 39.8 µM [inhibitor, partial curve, poor fit] |
| O=C(O)c1cn(C2CCCCCC2)nn1 | inconclusive: 56.2 µM [inhibitor, partial curve, poor fit] |
| CC=C(C)C1(CCC)C(=O)NC(=S)NC1=O | active: 31.6 µM |
| O=[N+]([O-])c1cccc(CN2CC=C(c3ccc(F)cc3)CC2)c1 | inconclusive: 12.6 µM [inhibitor, partial curve, poor fit] |
| O=C(NCCN1CCC2(CC1)C(=O)NCN2c1ccccc1)c1ccccc1F | inconclusive: 44.7 µM [inhibitor, partial curve, poor fit] |
| COC(=O)C1=C(c2ccc(F)cc2OCc2ccccc2)C[C@@H]2CC[C@H]1N2C(=O)NCc1ccco1 | inconclusive: 44.7 µM [inhibitor, partial curve, poor fit] |
| CC(=O)N1C[C@@H]2C[C@H](C1)c1ccc(NC(=O)Nc3cccc(C#N)c3)c(=O)n1C2 | inactive |
| Fc1ccc(C(OCCN2CCN(C/C=C/c3ccccc3)CC2)c2ccc(F)cc2)cc1 | inconclusive: 6.31 µM [inhibitor, full curve, poor fit] |
| COc1ccccc1OCC(=O)N1CCN(Cc2nc(N)c3ccccc3n2)CC1 | inconclusive: 89.1 µM [inhibitor, single point] |
| CC1=C(N2CC2)C(=O)C(CO)=C(N2CC2)C1=O | inactive |
| NCC1(CC(=O)O)CCCCC1 | inconclusive: 8.63 µM [inhibitor, partial curve] |

Individual results from the list.
`Fc1ccc(C(OCCN2CCN(C/C=C/c3ccccc3)CC2)c2ccc(F)cc2)cc1` | Potency: inconclusive: 6.31 µM [inhibitor, full curve, poor fit]
`CC1=C(N2CC2)C(=O)C(CO)=C(N2CC2)C1=O` | Potency: inactive
`CC(=O)N1C[C@@H]2C[C@H](C1)c1ccc(NC(=O)Nc3cccc(C#N)c3)c(=O)n1C2` | Potency: inactive

Next results follow:

| SMILES | Potency |
| --- | --- |
| Cc1cccc(-n2c(CC3C(=O)Nc4ccc(C)cc43)nc3ccccc3c2=O)c1 (configuration not stated) | inconclusive: 126 µM [inhibitor, partial curve, poor fit] |
| O=c1c2ccccc2nc(-c2ccccc2)n1-c1ccc(O)cc1 | inactive |
| O=c1[nH]c2ccccc2c(=O)n1-c1ccc(Cl)cc1Cl | inactive |
| N#CC1=C(N)Oc2cc(O)ccc2C1c1ccc2c(c1)OCO2 (configuration not stated) | inconclusive: 50.1 µM [inhibitor, partial curve, poor fit] |
| C=CCn1c(O)c(C(C)=O)c(=O)[nH]c1=O (tested in a mixture with another compound) | inactive |
| COC(=O)C1=C(c2cccc(OCc3ccccc3)c2)C[C@@H]2CC[C@H]1N2C(=O)NCc1ccc(Br)cc1 | inconclusive: 44.7 µM [inhibitor, partial curve, poor fit] |
| COc1ccc2c(c1)NP(=S)(c1ccccc1)N2C (configuration not stated) | inconclusive: 28.2 µM [inhibitor, partial curve, poor fit] |
| COc1cccc(-n2c(/C=C/c3cccc(C)c3)nc3ccccc3c2=O)c1 | inconclusive: 14.1 µM [inhibitor, partial curve, poor fit] |
| CN(CCc1ccccc1)Cc1c[nH]c2ccccc12 | inconclusive: 1.26 µM [inhibitor, full curve, poor fit] |
| CCc1ccc(CN2CCN(C(=O)Cc3ccccc3)CC2)cc1 | inconclusive: 1.41 µM [inhibitor, full curve] |
| O=C(c1ccc2c(c1)ncn2C1CCCCCC1)N1CCC2(CC1)OCCO2 | inactive |
| CC(=O)c1ccc2c(c1)C1C(Cl)C(Sc3ccccc3[N+](=O)[O-])CC1C(c1ccccc1)N2 (configuration not stated) | inconclusive: 35.5 µM [inhibitor, partial curve, poor fit] |
| CCOC(=O)c1ccc(NC(=O)CSc2nc3c(cc2C#N)N2CCC3CC2)cc1 | inconclusive: 44.7 µM [inhibitor, partial curve, poor fit] |
| COc1cc2c(cc1OC)CC[N+](C)=C2 | inconclusive: 44.7 µM [inhibitor, partial curve, poor fit] |
| COc1ccc(-n2c(O)c(/C=C/C=Nc3ccccc3)c(=O)[nH]c2=O)cc1 | inconclusive: 44.7 µM [inhibitor, partial curve, poor fit] |
| Nc1nonc1C(=O)N/N=C/c1ccc([N+](=O)[O-])o1 | inactive |
| CCOC(=O)[C@]12Cc3ccccc3[C@H]1N(Cc1ccccc1)C(=O)c1ccccc12 | inactive |
| CCOc1cc(C2NCc3ccccc3-n3cccc32)ccc1OC (configuration not stated) | inactive |
| CCOc1cc2c(cc1OCC)-n1cccc1C(c1cccc(OCC)c1O)NC2 (configuration not stated) | inconclusive: 50.1 µM [inhibitor, single point] |
| O=c1[nH]c(=O)n(-c2ccccc2)c(O)c1/C=C1/C(c2ccccc2)=Nc2ccccc21 | inconclusive: 44.7 µM [inhibitor, full curve, poor fit] |
| COc1ccc(CCNCc2ccc(SC)cc2)cc1 | inconclusive: 35.5 µM [inhibitor, partial curve, poor fit] |
